Our source for the binding values is PMC9699620.

Protein sequences, listed by entry. Tags and fused reporters are not part of them.
UniProt O43150: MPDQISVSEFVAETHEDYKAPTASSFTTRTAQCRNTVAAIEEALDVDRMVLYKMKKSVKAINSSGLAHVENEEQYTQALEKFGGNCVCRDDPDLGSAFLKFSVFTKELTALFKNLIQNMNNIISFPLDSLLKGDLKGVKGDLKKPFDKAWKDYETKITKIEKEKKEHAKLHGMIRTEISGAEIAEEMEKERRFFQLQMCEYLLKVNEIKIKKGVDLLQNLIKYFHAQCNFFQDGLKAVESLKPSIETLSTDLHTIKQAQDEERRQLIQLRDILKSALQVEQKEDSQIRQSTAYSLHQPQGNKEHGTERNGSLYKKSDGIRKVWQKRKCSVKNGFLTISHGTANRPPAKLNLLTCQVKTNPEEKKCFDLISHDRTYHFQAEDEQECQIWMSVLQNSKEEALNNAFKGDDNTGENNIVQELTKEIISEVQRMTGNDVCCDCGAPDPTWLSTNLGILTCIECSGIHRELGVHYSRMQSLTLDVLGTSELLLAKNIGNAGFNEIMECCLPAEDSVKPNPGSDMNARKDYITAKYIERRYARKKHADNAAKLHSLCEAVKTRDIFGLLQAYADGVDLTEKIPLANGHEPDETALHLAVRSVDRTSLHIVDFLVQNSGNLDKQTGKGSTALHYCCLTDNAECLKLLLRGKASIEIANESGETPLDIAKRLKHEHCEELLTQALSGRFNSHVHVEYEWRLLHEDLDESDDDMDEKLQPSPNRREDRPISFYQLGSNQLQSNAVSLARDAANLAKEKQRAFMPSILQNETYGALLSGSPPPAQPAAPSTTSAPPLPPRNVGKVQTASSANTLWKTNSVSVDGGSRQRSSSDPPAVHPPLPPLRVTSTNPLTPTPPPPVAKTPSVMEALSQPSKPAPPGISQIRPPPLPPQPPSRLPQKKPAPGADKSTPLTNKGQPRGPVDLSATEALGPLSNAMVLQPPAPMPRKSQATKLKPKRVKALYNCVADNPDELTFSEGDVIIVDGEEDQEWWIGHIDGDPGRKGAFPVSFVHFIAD
UniProt Q96BY6: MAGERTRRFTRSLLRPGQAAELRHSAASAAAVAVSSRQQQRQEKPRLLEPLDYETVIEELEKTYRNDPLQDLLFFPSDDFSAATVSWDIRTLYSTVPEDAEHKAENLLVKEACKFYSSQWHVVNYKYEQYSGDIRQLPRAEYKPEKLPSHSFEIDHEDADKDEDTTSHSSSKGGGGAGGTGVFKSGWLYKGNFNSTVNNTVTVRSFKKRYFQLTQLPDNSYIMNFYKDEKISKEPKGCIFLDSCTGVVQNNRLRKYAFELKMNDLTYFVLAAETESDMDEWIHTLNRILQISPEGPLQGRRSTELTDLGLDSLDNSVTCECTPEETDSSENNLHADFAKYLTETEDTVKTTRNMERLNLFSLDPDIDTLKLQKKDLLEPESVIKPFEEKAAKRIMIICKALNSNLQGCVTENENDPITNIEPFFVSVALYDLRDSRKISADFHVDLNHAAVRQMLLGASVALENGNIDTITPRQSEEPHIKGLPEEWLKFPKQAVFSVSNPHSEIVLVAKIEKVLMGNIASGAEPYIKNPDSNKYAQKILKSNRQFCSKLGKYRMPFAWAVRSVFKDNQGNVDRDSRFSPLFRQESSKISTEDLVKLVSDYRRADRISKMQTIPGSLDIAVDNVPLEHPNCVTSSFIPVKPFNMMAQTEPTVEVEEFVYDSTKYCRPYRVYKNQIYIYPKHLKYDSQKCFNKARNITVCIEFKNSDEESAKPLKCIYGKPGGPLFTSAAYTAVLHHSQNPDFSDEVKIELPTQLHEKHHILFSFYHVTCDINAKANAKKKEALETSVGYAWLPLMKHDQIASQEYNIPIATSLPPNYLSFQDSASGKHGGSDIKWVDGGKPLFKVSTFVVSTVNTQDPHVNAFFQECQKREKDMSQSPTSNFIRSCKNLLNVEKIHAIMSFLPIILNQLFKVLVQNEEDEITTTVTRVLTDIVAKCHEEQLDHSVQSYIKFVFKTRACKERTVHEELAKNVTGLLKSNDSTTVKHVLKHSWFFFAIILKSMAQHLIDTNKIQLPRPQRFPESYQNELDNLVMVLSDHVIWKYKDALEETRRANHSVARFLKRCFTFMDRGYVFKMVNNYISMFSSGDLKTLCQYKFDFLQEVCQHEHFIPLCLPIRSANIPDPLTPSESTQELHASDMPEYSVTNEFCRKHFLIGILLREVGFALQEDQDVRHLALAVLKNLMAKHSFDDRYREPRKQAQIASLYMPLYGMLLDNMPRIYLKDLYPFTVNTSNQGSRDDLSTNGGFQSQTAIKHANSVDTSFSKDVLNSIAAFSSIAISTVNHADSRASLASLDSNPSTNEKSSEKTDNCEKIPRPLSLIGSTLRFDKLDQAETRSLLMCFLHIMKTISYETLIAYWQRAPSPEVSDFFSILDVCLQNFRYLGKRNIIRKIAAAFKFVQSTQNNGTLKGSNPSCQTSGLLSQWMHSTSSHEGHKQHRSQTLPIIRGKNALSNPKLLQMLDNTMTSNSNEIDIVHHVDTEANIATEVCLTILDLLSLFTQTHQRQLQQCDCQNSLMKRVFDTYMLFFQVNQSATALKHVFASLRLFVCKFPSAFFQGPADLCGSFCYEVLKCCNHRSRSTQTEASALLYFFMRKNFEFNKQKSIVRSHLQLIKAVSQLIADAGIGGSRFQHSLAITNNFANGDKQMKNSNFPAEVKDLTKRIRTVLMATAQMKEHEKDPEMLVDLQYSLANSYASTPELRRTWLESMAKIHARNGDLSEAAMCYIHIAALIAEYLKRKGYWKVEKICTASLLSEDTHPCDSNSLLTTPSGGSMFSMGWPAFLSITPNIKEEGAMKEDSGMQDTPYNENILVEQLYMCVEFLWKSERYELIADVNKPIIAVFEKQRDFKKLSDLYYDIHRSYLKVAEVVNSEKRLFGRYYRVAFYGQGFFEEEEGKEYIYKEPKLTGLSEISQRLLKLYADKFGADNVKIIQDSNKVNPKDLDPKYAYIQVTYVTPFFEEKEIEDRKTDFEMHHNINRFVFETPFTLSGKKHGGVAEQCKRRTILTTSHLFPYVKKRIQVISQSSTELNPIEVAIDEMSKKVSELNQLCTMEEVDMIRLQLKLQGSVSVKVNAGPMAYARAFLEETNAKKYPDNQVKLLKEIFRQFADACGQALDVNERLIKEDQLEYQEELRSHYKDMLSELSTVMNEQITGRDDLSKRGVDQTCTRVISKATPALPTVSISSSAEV
UniProt O75165: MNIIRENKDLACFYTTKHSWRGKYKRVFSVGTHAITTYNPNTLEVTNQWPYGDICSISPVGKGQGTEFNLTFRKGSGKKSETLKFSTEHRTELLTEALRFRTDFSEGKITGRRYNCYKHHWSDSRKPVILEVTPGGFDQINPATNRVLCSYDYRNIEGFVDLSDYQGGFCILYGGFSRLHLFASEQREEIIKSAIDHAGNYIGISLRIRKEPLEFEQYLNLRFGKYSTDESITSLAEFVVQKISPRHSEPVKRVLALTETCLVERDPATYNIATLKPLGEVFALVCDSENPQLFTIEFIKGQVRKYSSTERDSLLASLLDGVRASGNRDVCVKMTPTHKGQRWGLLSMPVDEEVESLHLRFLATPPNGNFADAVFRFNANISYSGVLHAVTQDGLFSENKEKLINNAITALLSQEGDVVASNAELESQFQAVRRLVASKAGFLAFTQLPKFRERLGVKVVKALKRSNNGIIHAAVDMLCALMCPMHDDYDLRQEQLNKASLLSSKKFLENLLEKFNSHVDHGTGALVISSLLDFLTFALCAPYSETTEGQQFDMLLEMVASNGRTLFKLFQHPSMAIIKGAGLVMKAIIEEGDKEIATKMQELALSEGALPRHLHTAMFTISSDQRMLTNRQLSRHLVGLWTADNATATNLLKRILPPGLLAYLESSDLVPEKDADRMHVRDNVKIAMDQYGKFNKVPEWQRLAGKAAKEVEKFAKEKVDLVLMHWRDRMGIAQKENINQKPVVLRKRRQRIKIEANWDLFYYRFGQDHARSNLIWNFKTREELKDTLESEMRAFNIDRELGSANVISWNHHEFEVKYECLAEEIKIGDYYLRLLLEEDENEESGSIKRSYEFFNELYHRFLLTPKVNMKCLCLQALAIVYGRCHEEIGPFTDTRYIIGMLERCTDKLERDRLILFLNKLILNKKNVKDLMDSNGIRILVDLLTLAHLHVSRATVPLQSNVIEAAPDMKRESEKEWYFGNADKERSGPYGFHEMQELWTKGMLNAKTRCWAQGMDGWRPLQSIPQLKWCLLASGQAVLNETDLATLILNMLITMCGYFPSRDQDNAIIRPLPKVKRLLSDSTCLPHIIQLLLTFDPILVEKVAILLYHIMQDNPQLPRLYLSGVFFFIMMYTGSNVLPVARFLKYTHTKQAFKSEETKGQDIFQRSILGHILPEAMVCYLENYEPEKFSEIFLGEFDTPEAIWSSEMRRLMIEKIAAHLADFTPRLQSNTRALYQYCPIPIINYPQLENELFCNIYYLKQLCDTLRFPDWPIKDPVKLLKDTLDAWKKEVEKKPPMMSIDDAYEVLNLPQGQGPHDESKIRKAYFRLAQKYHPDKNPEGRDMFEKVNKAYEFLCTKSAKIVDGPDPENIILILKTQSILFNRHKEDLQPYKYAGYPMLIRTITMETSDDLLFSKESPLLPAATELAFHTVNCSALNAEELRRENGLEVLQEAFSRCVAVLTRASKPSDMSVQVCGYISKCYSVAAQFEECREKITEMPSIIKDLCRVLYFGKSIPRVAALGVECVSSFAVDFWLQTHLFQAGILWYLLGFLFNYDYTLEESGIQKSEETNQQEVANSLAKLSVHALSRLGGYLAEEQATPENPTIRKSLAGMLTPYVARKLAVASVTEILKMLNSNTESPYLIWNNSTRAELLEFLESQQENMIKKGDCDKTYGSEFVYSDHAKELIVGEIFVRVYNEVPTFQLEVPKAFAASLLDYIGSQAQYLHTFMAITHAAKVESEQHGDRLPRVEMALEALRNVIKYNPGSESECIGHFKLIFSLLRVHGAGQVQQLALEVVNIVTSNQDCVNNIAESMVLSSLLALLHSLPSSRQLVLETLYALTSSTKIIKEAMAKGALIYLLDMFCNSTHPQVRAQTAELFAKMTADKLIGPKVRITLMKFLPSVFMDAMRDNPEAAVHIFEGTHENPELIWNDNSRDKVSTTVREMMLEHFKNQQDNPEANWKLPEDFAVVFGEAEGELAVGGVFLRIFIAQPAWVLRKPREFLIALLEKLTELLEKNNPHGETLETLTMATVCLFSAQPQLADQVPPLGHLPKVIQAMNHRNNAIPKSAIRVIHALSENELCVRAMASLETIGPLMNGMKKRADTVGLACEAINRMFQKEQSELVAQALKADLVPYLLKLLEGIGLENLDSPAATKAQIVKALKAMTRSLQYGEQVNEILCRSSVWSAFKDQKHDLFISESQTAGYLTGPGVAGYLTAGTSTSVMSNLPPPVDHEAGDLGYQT
UniProt P41091: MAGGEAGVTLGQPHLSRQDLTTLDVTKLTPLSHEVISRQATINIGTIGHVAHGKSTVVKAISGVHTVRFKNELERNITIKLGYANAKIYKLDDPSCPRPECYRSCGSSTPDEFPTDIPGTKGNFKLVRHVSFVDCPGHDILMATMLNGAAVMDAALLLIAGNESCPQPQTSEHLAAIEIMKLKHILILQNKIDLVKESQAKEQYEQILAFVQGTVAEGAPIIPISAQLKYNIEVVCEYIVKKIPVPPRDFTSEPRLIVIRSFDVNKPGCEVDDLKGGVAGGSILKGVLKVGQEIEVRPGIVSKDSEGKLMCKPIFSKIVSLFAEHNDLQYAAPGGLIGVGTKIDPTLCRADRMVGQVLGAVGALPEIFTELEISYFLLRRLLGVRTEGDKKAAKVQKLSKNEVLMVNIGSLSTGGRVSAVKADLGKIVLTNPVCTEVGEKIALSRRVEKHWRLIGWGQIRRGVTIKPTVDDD
UniProt P08134: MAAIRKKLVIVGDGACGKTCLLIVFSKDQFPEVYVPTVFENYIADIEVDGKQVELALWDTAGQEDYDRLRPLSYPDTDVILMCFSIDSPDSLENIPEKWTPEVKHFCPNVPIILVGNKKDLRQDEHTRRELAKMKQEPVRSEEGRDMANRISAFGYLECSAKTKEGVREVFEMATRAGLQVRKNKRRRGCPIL

Assay [1] deals with ArfGAP with SH3 Domain, Ankyrin Repeat and PH Domain 2 (ASAP2) (human (endogenous in THP-1)) (UniProt O43150). The assay can be described thus: affinity purification with mass spectrometry; ASAP2 interactome from lysate of 1,25(OH)2D3-stimulated THP-1 monocytes; protein A/G beads, 4 °C.
The target is the same in assay [2]. The assay can be described thus: affinity purification with mass spectrometry; immunoprecipitation with anti-ASAP2 antibody from lysate of 1,25(OH)2D3-stimulated THP-1 M0 macrophages; protein A/G beads, 4 °C; normal IgG as negative control.
For assay [3] the target is unchanged. Described as above. This is another data set of the same source.

No constants are given. Whether binding was seen depends on the method and setting. In cells and extracts the contact can be indirect. These calls come from enrichment with a bait or labelling near it, and not all partners need be listed.

For “SAM and HD domain-containing deoxynucleoside triphosphate triphosphohydrolase 1 (SAMHD1) (from UniProt Q9Y3Z3 1-626)”, the binding result in assay [1] and in assay [2] was “binds” each time. Turning to DOCK10 (from UniProt Q96BY6 1-2186), in assay [2], the binding result is reported as “binds”. DNAJC13 (from UniProt O75165 1-2243): the binding result in assay [2] is reported as “binds”. Take EIF2S3 (from UniProt P41091 1-472): the binding entry in assay [2] is “binds”. For the molecule RHOC (from UniProt P08134 1-193), the binding result in assay [2] is listed as “binds”.

B1: FKBP15 (protein, UniProt Q5T1M5 1-1219)
chain: MFGAGDEDDTDFLSPSGGARLASLFGLDQAAAGHGNEFFQYTAPKQPKKGQGTAATGNQATPKTAPATMSTPTILVATAVHAYRYTNGQYVKQGKFGAAVLGNHTAREYRILLYISQQQPVTVARIHVNFELMVRPNNYSTFYDDQRQNWSIMFESEKAAVEFNKQVCIAKCNSTSSLDAVLSQDLIVADGPAVEVGDSLEVAYTGWLFQNHVLGQVFDSTANKDKLLRLKLGSGKVIKGWEDGMLGMKKGGKRLLIVPPACAVGSEGVIGWTQATDSILVFEVEVRRVKFARDSGSDGHSVSSRDSAAPSPIPGADNLSADPVVSPPTSIPFKSGEPALRTKSNSLSEQLAINTSPDAVKAKLISRMAKMGQPMLPILPPQLDSNDSEIEDVNTLQGGGQPVVTPSVQPSLHPAHPALPQMTSQAPQPSVTGLQAPSAALMQVSSLDSHSAVSGNAQSFQPYAGMQAYAYPQASAVTSQLQPVRPLYPAPLSQPPHFQGSGDMASFLMTEARQHNTEIRMAVSKVADKMDHLMTKVEELQKHSAGNSMLIPSMSVTMETSMIMSNIQRIIQENERLKQEILEKSNRIEEQNDKISELIERNQRYVEQSNLMMEKRNNSLQTATENTQARVLHAEQEKAKVTEELAAATAQVSHLQLKMTAHQKKETELQMQLTESLKETDLLRGQLTKVQAKLSELQETSEQAQSKFKSEKQNRKQLELKVTSLEEELTDLRVEKESLEKNLSERKKKSAQERSQAEEEIDEIRKSYQEELDKLRQLLKKTRVSTDQAAAEQLSLVQAELQTQWEAKCEHLLASAKDEHLQQYQEVCAQRDAYQQKLVQLQEKCLALQAQITALTKQNEQHIKELEKNKSQMSGVEAAASDPSEKVKKIMNQVFQSLRREFELEESYNGRTILGTIMNTIKMVTLQLLNQQEQEKEESSSEEEEEKAEERPRRPSQEQSASASSGQPQAPLNRERPESPMVPSEQVVEEAVPLPPQALTTSQDGHRRKGDSEAEALSEIKDGSLPPELSCIPSHRVLGPPTSIPPEPLGPVSMDSECEESLAASPMAAKPDNPSGKVCVREVAPDGPLQESSTRLSLTSDPEEGDPLALGPESPGEPQPPQLKKDDVTSSTGPHKELSSTEAGSTVAGAALRPSHHSQRSSLSGDEEDELFKGATLKALRPKAQPEEEDEDEVSMKGRPPPTPLFGDDDDDDDIDWLG
B1: the binding entry in assay [3] is listed as “binds”.
